pIC50: −log10 of the molar value. No signal at the amounts used counts as a negative. Weaker means in comparison with the reference protein, sequence or condition of that experiment. The exact form of at least one protein or probe is not confirmed. Whether high values mean tight binding is not given here for every scale.

By UniProt entry, the sequences of proteins in these tests, tags left out. Chains listed by the source or under a name are the forms on record and can include a tag or linker.
UniProt P15692, other isoform, or with tags, fused parts or gaps: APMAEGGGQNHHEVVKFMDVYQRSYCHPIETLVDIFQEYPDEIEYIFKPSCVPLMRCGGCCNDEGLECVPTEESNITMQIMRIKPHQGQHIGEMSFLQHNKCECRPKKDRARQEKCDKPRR

Consider 49 sequences from patent US20220098591.

This series has as its target VEGF-A121 (Homo sapiens) (UniProt P15692). As to the kind of experiment: competition with a labelled probe. The note with it: 5' C6NH2, 3' idT, purified recombinant protein.
The mark [1] stands for this setting: 2'-F G except 2'-OMe G at 22,39 (Aptamer 141 numbering), 2'-OMe A,C,U, SP3 spacer between parts.
The mark [2] stands for this setting: all G 2'-F, A,C,U 2'-OMe, Sp3 joins the two parts, variant of Aptamer 26.
The mark [3] stands for this setting: 2'-F G except 2'-OMe G at 6,39,42 (Aptamer 141 numbering), 2'-OMe A,C,U, SP3 spacer between parts.
The mark [4] stands for this setting: all G 2'-F, A,C,U 2'-OMe, variant of Aptamer 26.
The mark [5] stands for this setting: 2'-F G except 2'-OMe G at 6,22,39,42 (Aptamer 141 numbering), 2'-OMe A,C,U, SP3 spacer between parts.
The mark [6] stands for this setting: 2'-F G except 2'-OMe G at 6,12,22,39,42 (Aptamer 141 numbering), 2'-OMe A,C,U, SP3 spacer between parts.

On to “CGACCCGCGCGGAGGGGUUUCAUUAUCCCGUUUGUCG [Aptamer 299]”, for which the binding result (2'-F G except 2'-OMe G at 6,22,39,42 (Aptamer 141 numbering), 2'-OMe A,C,U, SP6 spacer (1,6-hexanediol) between parts) was “binds more weakly”.
In the case of “ACCCGCGCGGAGGGGUUUCAUUAUCCCGUUUGU [Aptamer 278]”, the binding signal (fold worse than Aptamer 141) under setting [1] is over 100.
On to “GCCGACCCGCGCGGAGGGGUUUCAUUAUCCCGUUUGUCGGC [Aptamer 215]”, for which the binding result (2'-F G except 2'-OMe G at 3,22,42,43 (Aptamer 141 numbering), 2'-OMe A,C,U, SP3 spacer between parts) was “binds”.
As for “AGGCCGCCUCCGCGCGGAGGGGUUUAUUAUCCCGUUUGGCGGCUU [Aptamer 64]”, the binding result under setting [2] is recorded as “binds more weakly”.
Consider “CGACCCGCGCGGAGGGAUAUCAUUAUCCCGUUUGUCG [Aptamer 287]”, for which the binding result under setting [3] is reported as “binds”.
In the case of “CCCGCGCGGAGGGGUUUCAUUAUCCCGUUUG [Aptamer 280]”, where the note is “2'-F G except 2'-OMe G at 39 (Aptamer 141 numbering), 2'-OMe A,C,U, SP3 spacer between parts”, the binding signal (fold worse than Aptamer 141) was over 100.
Turning to “GACCCGCGCGGAGGGGUUUCAUUAUCCCGUUUGUC [Aptamer 241]”, the binding result (2'-F G except 2'-OMe G at 6,22,39 (Aptamer 141 numbering), 2'-OMe A,C,U, SP3 spacer between parts) is “binds”.
Take “AGGCCGCCUCCUCGCGGAGGGGUUUCAUUAUCCCGUUUGGCGGCUU [Aptamer 151]”: the binding result under setting [4] was “binds more weakly”.
With “GACCCGCGCGGAGGGGUUUCAUUAUCCCGUUUGUC [Aptamer 238]”, for the setting “2'-F G except 2'-OMe G at 6,22 (Aptamer 141 numbering), 2'-OMe A,C,U, SP3 spacer between parts”, the binding result was “binds”.
For the sequence “AGGCCGCCUCCGCGCGGAGGGGUUUCAUUAUCCCGUUGGGCGGCUU [Aptamer 173]”, the binding result under setting [4] is recorded as “binds more weakly”.
As to “GCCGACCCGCGCGGAGGGGUUUCAUUAUCCCGUUUGUCGGC [Aptamer 217]”, where the note is “2'-F G except 2'-OMe G at 3,6,22,42,43 (Aptamer 141 numbering), 2'-OMe A,C,U, SP3 spacer between parts”, the binding result is listed as “binds”.
For the sequence “AGGCCGCCUCCGAGCGGAGGGGUUUCAUUAUCCCGUUUGGCGGCUU [Aptamer 152]”, the binding result under setting [4] was “binds more weakly”.
In the case of “CGACCCGCGCGGAGGGGUUACAUUAUCCCGUUUGUCG [Aptamer 284]”, the binding result under setting [5] is on record as “binds”.
Turning to “AGGCCGUUUCCGCGCGGAGGGGUUUCAUUAUCCCGUUUAACGGCUU [Aptamer 136]”, under setting [4], the binding result was “binds more weakly”.
For “CCCGCGCGGAGGGGUUUCAUUAUCCCGUUUG [Aptamer 281]”, under setting [1], the binding signal (fold worse than Aptamer 141) is over 100.
“AGGCCGCCUCCGCGCGGAGGACUUUCAUUAGUCCGUUUGGCGGCUU [Aptamer 128]”: under setting [4], the binding result was “binds more weakly”.
On to “AGGCCGCGUCCGCGCGGAGGGGUUUCAUUAUCCCGUUUCGCGGCUU [Aptamer 121]”, for which the binding result under setting [4] is on record as “binds more weakly”.
With “AGGCCGACCCGCGCGGAGGGGUUUCAUUAUCCCGUUUGUCGGCUU [Aptamer 189]”, the binding result (2'-F G except 2'-OMe G at 12, 2'-OMe A,C,U, SP3 spacer at 9 between parts) is listed as “binds”.
As to “UAGGCCGCCUCCGCGCGGUGGGGUUUCAUUAUCCCGUUUGGCGGCUUU [Aptamer 28]”, the binding result under setting [4] was “binds more weakly”.
For “AGGCCGACCCGCGCGGAGGGGUUUCAUUAUCCCGUUUGUCGGCUU [Aptamer 192]”, the binding result (2'-F G except 2'-OMe G at 17, 2'-OMe A,C,U, SP3 spacer at 9 between parts) is “binds more weakly”.
On to “CGACCCGCGCGGAGGGGUUUCAUUAUCCCGUUUGUCG [Aptamer 231]”, for which, where the note is “2'-F G except 2'-OMe G at 6,22,42 (Aptamer 141 numbering), 2'-OMe A,C,U, SP3 spacer between parts”, the binding result is reported as “binds”.
On to “GCCGACCCGCGCGGAGGGGUUUCAUUAUCCCGUUUGUCGGC [Aptamer 216]”, for which the binding result (2'-F G except 2'-OMe G at 3,39,42,43 (Aptamer 141 numbering), 2'-OMe A,C,U, SP3 spacer between parts) is on record as “binds”.
As for “AGGCCGCCUCCGCGCGGAGGGGUUUCAUUAUCCCGUUAGGCGGCUU [Aptamer 171]”, under setting [4], the binding result is reported as “binds more weakly”.
In the case of “CGACCCGCGCGGAGGGAUUUCAUUAUCCCGUUUGUCG [Aptamer 282]”, under setting [3], the binding result was “binds”.
With “GACCCGCGCGGAGGGGUUUCAUUAUCCCGUUUGUC [Aptamer 239]”, under “2'-F G except 2'-OMe G at 6,39 (Aptamer 141 numbering), 2'-OMe A,C,U, SP3 spacer between parts”, the binding result is “binds”.
Turning to “AGGCCGCCCCGCGCGGAGGGGUUUCAUUAUCCCGUUUGGCGGCUU [Aptamer 47]”, the pIC50 (all G 2'-F, A,C,U 2'-OMe, Sp3 (1,3-propanediol) joins the two parts (position 9), AlphaLISA, blocks KDR binding, variant of Aptamer 26) is 8.44.
For the sequence “AGGCCGACCCGCGCGGAGGGGUUUCAUUAUCCCGUUUGUCGGCUU [Aptamer 195]”, the binding signal (fold worse than Aptamer 141) (2'-F G except 2'-OMe G at 21, 2'-OMe A,C,U, SP3 spacer at 9 between parts) was over 100.
Take “AGGCCGACCCGCGCGGAGGGGUUUCAUUAUCCCGUUUGUCGGCUU [Aptamer 197]”: the binding signal (fold worse than Aptamer 141) (2'-F G except 2'-OMe G at 35, 2'-OMe A,C,U, SP3 spacer at 9 between parts) was over 100.
“AGGCCGAUUCCGCGCGGAGGGGUUUCAUUAUCCCGUUUAUCGGCUU [Aptamer 134]”: the binding result under setting [4] is “binds more weakly”.
For the sequence “CGACCAGCGCUGAGGGGUUUCAUUAUCCCGUUUGUCG [Aptamer 295]”, under setting [6], the binding signal (fold worse than Aptamer 141) is 12.
Turning to “CGACCCGCGCGGAGGGGUUUCAUUAUCCCGUUUGUCG [Aptamer 232]”, the binding result under setting [3] was “binds”.
Turning to “AGGCCGCCUCCGCGCGGAGGGGUUUCAUUAUCCCGUCUGGCGGCUU [Aptamer 169]”, the binding result under setting [4] is recorded as “binds more weakly”.
For “GCCGACCCGCGCGGAGGGGUUUCAUUAUCCCGUUUGUCGGC [Aptamer 219]”, the binding result (2'-F G except 2'-OMe G at 3,22,39,42,43 (Aptamer 141 numbering), 2'-OMe A,C,U, SP3 spacer between parts) is given as “binds”.
With “GACCCGCGCGGAGGGGUUUCAUUAUCCCGUUUGUC [Aptamer 235]”, the binding result (2'-F G except 2'-OMe G at 6 (Aptamer 141 numbering), 2'-OMe A,C,U, SP3 spacer between parts) was “binds”.
For “AGGCCGCCUCGGCGCCGAGGGGUUUCAUUAUCCCGUUUGGCGGCUU [Aptamer 177]”, the binding result under setting [4] was “binds more weakly”.
Consider “CGACCCGCGCGGAGGGGUUUCAUUAUCCCGUUUGUCG [Aptamer 294]”, for which the binding result under setting [6] is listed as “binds”.
“GCCGACCCGCGCGGAGGGGUUUCAUUAUCCCGUUUGUCGGC [Aptamer 220]”: the binding result (2'-F G except 2'-OMe G at 3,6,22,39,42,43 (Aptamer 141 numbering), 2'-OMe A,C,U, SP3 spacer between parts) is reported as “binds”.
Consider “GACCCGCGCGGAGGGGUUUCAUUAUCCCGUUUGUC [Aptamer 236]”, for which the binding result (2'-F G except 2'-OMe G at 22 (Aptamer 141 numbering), 2'-OMe A,C,U, SP3 spacer between parts) is “binds”.
Regarding “CCGACCCGCGCGGAGGGGUUUCAUUAUCCCGUUUGUCGGC [Aptamer 225]”, under “2'-F G except 2'-OMe G at 6,39,42,43 (Aptamer 141 numbering), 2'-OMe A,C,U, SP3 spacer between parts”, the binding result is “binds”.
Consider “GCCGACCCGCGCGGAGGGGUUUCAUUAUCCCGUUUGUCGGC [Aptamer 214]”, for which the binding result (2'-F G except 2'-OMe G at 3,6,42,43 (Aptamer 141 numbering), 2'-OMe A,C,U, SP3 spacer between parts) is recorded as “binds”.
On to “CGACCCGCGCGGAGGGGUUUCAUUAUCCCGUUUGUCG [Aptamer 230]”, for which, under “2'-F G except 2'-OMe G at 39,42 (Aptamer 141 numbering), 2'-OMe A,C,U, SP3 spacer between parts”, the binding result is recorded as “binds”.
Regarding “CGACCAGCGCUGAGGGGUUUCAUUAUCCCGUUUGUCG [Aptamer 293]”, the binding signal (fold worse than Aptamer 141) under setting [5] came out at 6.
In the case of “CGACCCGCGCGGAGGGAUUUCAUAAUCCCGUUUGUCG [Aptamer 289]”, the binding result under setting [3] is reported as “binds”.
As to “AGGCCGUUCCGCGCGGAGGGGUUUCAUUAUCCCGUUUAACGGCUU [Aptamer 140]”, the binding result under setting [2] was “binds more weakly”.
“AGGCCGUAUCCGCGCGGAGGGGUUUCAUUAUCCCGUUUUACGGCUU [Aptamer 135]”: the binding result under setting [4] is “binds more weakly”.
Consider “GACCCGCGCGGAGGGGUUUCAUUAUCCCGUUUGUC [Aptamer 240]”, for which the binding result under setting [1] is recorded as “binds”.
Turning to CGGAAUCAGUGAAUGCUUAUACAUCCG [Aptamer 7], where the note is “2'-F C and U, 2'-OMe G and A except AA at positions 4-5, AlphaLISA, no inhibition of KDR binding, dose not given here”, the “functional effect of the aptamer” value is “not active”.
“AGGCCGCCUCCGCGCGGAGGGGUUUCAUUAUCCCGGUUGGCGGCUU [Aptamer 167]”: the binding result under setting [4] is given as “binds more weakly”.
Still for that read-out and setting: under “AGGCCGCCUCCGCGCGGAGGGGUUUCAUUAUCCCGUUCGGCGGCUU [Aptamer 172]” stands “binds more weakly”.
